Values from PubChem BioAssay AID602196 (INSERM, 2012).

Test: 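Knock-downs that protect lung cancer cells from cisplatin or sensitise them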
System: human A549 lung cancer cells
Knock-down reagent: siRNA pair against human genes
Time to read-out: 48 h transfection before cisplatin; time from cisplatin to read-out not stated
Conditions: cisplatin at a dose killing half of control-siRNA cells; exact dose and duration not given
Read-out: 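Shift in cisplatin death relative to control siRNA, from -50 (all cells die) to +50 (no cells die); siRNAs harmful on their own scored 0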
Scale: two-siRNA summed score (-2 to +2): higher = both siRNAs protect from cisplatin killing; -2 means both sensitise; mean protection from cisplatin (shift in death) and protection from cisplatin (shift in death), siRNA C: higher = protection from cisplatin killing
Call rule: 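Each siRNA scores 0 if harmful alone by LDH or WST-1, otherwise +1 if it reduces and -1 if it increases cisplatin killing; a gene is active when both siRNAs agree (sum +2 or -2)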
Calls: active = both siRNAs shift cisplatin killing the same way; inactive = no consistent shift, or siRNA harmful alone
The whole screen tested about 23,000 reagents; below is a part drawn at random. 455 of all reagents (2%) were called active. 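Active includes both protection and sensitisation; some change values fall well beyond the stated -50 to +50 range.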 Not all columns of the deposit are shown. Reagent sequences are not shown. Not stated in the record: the amount of reagent.

target	two-siRNA summed score (-2 to +2)	mean protection from cisplatin (shift in death) (%)	protection from cisplatin (shift in death), siRNA C (%)	Outcome
ERI3 (GeneID 79033)	1	12.8	23.6	inactive
FOXH1 (GeneID 8928)	1	2.3	-8.3	inactive
FLJ16518	0	-8.3	-8.4	inactive
NSA2 (GeneID 10412)	1	15.2	18.6	inactive
FGF20 (GeneID 26281)	0	-1.2	-3.7	inactive
SLC30A9 (GeneID 10463)	0	0.6	-3.5	inactive
HSD11B1L (GeneID 374875)	0	-10	-2	inactive
LOC440183	1	8.9	18.4	inactive
PRPF3 (GeneID 9129)	0	7.1	5.9	inactive
ALCAM (GeneID 214)	-1	-15.7	-6.5	inactive
CTRC (GeneID 11330)	0	-10.9	2	inactive
GFER (GeneID 2671)	-1	-7.2	-4.9	inactive
DYNC1I1 (GeneID 1780)	0	-1.7	3.2	inactive
SDHAF4 (GeneID 135154)	-1	-1.1	8.3	inactive
KIAA1240	0	11.9	12.5	inactive
TCIM (GeneID 56892)	1	6.3	13	inactive
SARNP (GeneID 84324)	0	0.8	5.9	inactive
KCNAB2 (GeneID 8514)	0	-4.6	6.4	inactive
MLF2 (GeneID 8079)	0	14.3	-2.5	inactive
LOC344172	1	15.7	15.3	inactive
CPAMD8 (GeneID 27151)	0	9.9	19.1	inactive
ZNF148 (GeneID 7707)	1	12.9	5.5	inactive
KATNIP (GeneID 23247)	0	5.9	4.8	inactive
CDK1 (GeneID 983)	1	8.1	10.7	inactive
COP1 (GeneID 64326)	0	4.6	-1	inactive
RTL10 (GeneID 79680)	0	-1.8	-4.9	inactive
PODXL2 (GeneID 50512)	0	1.9	2.6	inactive
GNAI1 (GeneID 2770)	0	2.2	3.5	inactive
SLC25A26 (GeneID 115286)	0	3.8	-0.2	inactive
TMEM204 (GeneID 79652)	0	-3.5	-3	inactive
CD7 (GeneID 924)	0	-4.3	12.1	inactive
FAHD2B (GeneID 151313)	-1	-7.2	-18.7	inactive
ATG9A (GeneID 79065)	0	9.1	12.3	inactive
PIGG (GeneID 54872)	1	1.6	-14.7	inactive
SLFN11 (GeneID 91607)	0	14.2	15.7	inactive
PRSS12 (GeneID 8492)	-1	-23.5	-23.2	inactive
VAMP7 (GeneID 6845)	-1	-10.5	-15.6	inactive
D2HGDH (GeneID 728294)	0	7.9	2.2	inactive
FSAF1 (GeneID 128061)	-2	-13.9	-14.6	active
LAIR1 (GeneID 3903)	0	1.8	3.4	inactive
AARS1 (GeneID 16)	0	0.5	11.1	inactive
DECR1 (GeneID 1666)	0	3.1	0.9	inactive
KRT24 (GeneID 192666)	0	-7.4	-2.8	inactive
LOC390533	1	18.9	40.5	inactive
ADGRL2 (GeneID 23266)	1	12.1	19.4	inactive
ZNF700 (GeneID 90592)	0	7.7	12.7	inactive
DAAM1 (GeneID 23002)	1	7.9	8.1	inactive
CMTM8 (GeneID 152189)	0	11.3	17.3	inactive
TRIM60 (GeneID 166655)	-1	-5.3	0.8	inactive
LOC389841	0	-5.2	-5.3	inactive
LOC283999	0	1.9	-6.7	inactive
ITPR3 (GeneID 3710)	0	1.9	12.6	inactive
SSX3 (GeneID 10214)	0	7.1	7	inactive
LOC388830	0	5.1	-0.1	inactive
SH3GL3 (GeneID 6457)	0	5.7	1.9	inactive
KBTBD7 (GeneID 84078)	0	6.6	4.3	inactive
TERF2IP (GeneID 54386)	0	0.4	-2.8	inactive
